This note sets out measurements from PMC7226988.

By UniProt entry, the sequences of proteins in these tests, tags left out.
UniProt Q03135: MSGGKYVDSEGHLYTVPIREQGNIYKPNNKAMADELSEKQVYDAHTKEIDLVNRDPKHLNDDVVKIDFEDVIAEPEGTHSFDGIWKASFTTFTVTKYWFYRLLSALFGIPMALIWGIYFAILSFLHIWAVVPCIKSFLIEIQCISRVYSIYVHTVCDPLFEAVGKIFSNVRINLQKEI

Where two headings read alike, the source gives them in different places. No constants are given. Whether binding was seen depends on the method and setting. Binding seen in cells or lysates may run through a third protein. Some binding calls cover weakened binding; strength is not graded here. For some of these results: Tags and fused reporters may be left off the sequences shown.

The target in assay [1] is T1, HA-tagged human sodium taurocholate cotransporting polypeptide (HA-hNTCP), expressed in U2OS cells (human) (UniProt Q14973).
T1 sequence: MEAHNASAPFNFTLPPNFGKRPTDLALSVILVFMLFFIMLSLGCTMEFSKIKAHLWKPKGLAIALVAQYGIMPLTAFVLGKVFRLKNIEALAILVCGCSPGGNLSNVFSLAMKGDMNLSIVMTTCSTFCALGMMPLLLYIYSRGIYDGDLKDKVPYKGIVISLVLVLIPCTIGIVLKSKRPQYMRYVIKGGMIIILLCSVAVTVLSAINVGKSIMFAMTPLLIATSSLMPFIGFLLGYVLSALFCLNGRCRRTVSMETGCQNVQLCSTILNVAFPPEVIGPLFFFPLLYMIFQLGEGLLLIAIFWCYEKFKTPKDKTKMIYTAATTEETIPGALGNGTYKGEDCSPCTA
Briefly: co-IP; U2OS cells expressing tagged hNTCP (HA or FLAG), RIPA lysate, anti-HA antibody on agarose beads 16 h at 4 °C (beads for FLAG-hNTCP not told), immunoblot; in Figure S1A also after methyl-beta-cyclodextrin (5 mM, 30 min). (In general: A western blot detects proteins with antibodies after separation by electrophoresis.)

The target in assay [2] is T2, stomatin, endogenous in human liver (human (endogenous in human liver)) (UniProt P27105).
T2 sequence: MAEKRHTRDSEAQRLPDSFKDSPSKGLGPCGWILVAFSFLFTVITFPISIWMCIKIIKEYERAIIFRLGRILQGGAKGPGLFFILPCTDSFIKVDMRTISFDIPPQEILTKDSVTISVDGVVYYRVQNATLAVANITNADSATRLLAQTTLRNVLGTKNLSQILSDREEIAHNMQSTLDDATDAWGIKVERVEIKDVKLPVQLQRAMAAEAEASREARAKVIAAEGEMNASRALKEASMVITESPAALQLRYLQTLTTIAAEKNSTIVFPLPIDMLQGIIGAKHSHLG
Description: co-IP; human liver homogenate in RIPA buffer, anti-stomatin overnight at 4 °C, Protein A agarose beads, immunoblot; two liver samples.

Assay [3] has as its target T3, FLAG-tagged human NTCP (FLAG-hNTCP) (human) (UniProt Q14973).
T3 sequence: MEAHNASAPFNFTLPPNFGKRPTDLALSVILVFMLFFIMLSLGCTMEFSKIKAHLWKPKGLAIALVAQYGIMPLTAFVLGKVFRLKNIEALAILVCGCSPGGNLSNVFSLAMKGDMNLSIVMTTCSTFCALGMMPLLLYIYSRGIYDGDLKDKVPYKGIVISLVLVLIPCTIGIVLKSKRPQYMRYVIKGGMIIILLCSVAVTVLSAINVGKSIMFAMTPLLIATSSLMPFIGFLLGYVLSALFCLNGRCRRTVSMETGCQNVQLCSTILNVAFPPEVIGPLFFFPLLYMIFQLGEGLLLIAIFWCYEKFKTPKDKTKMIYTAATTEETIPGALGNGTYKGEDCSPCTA
Description: co-IP; U2OS cells expressing tagged hNTCP (HA or FLAG), RIPA lysate, anti-HA antibody on agarose beads 16 h at 4 °C (beads for FLAG-hNTCP not told), immunoblot; in Figure S1A also after methyl-beta-cyclodextrin (5 mM, 30 min).

Assay [4] addresses T4, HA-hNTCP-Y307X, truncated human NTCP lacking the entire C-terminus (human) (UniProt Q14973).
T4 sequence: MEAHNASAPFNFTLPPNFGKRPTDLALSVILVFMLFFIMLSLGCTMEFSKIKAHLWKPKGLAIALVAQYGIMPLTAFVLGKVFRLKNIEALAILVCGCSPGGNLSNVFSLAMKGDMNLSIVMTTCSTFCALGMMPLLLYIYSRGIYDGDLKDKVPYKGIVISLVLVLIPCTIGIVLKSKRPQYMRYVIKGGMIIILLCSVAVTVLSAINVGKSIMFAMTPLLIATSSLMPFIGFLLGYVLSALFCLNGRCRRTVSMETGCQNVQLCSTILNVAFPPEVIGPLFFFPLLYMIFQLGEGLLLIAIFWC
Described as above.

Assay [5] addresses T1, HA-tagged human sodium taurocholate cotransporting polypeptide (HA-hNTCP), expressed in U2OS cells (human). The assay is described as above. This is another data set of the same source.

On to “caveolin-1, in U2OS cells expressing HA-hNTCP (from UniProt Q03135 1-178)”, for which the binding entry in assay [1] is reported as “binds”.

B1: NTCP, endogenous in human liver (protein, UniProt Q14973 1-349)
chain: MEAHNASAPFNFTLPPNFGKRPTDLALSVILVFMLFFIMLSLGCTMEFSKIKAHLWKPKGLAIALVAQYGIMPLTAFVLGKVFRLKNIEALAILVCGCSPGGNLSNVFSLAMKGDMNLSIVMTTCSTFCALGMMPLLLYIYSRGIYDGDLKDKVPYKGIVISLVLVLIPCTIGIVLKSKRPQYMRYVIKGGMIIILLCSVAVTVLSAINVGKSIMFAMTPLLIATSSLMPFIGFLLGYVLSALFCLNGRCRRTVSMETGCQNVQLCSTILNVAFPPEVIGPLFFFPLLYMIFQLGEGLLLIAIFWCYEKFKTPKDKTKMIYTAATTEETIPGALGNGTYKGEDCSPCTA
Consider B1, for which, in assay [2], the binding entry is given as “binds”.

B2: V5-stomatin (protein, UniProt P27105 1-288)
chain: MAEKRHTRDSEAQRLPDSFKDSPSKGLGPCGWILVAFSFLFTVITFPISIWMCIKIIKEYERAIIFRLGRILQGGAKGPGLFFILPCTDSFIKVDMRTISFDIPPQEILTKDSVTISVDGVVYYRVQNATLAVANITNADSATRLLAQTTLRNVLGTKNLSQILSDREEIAHNMQSTLDDATDAWGIKVERVEIKDVKLPVQLQRAMAAEAEASREARAKVIAAEGEMNASRALKEASMVITESPAALQLRYLQTLTTIAAEKNSTIVFPLPIDMLQGIIGAKHSHLG
Regarding B2, the binding entry in assay [3], in assay [4] and in assay [5] was “binds” throughout.

B3: stomatin in the cells of Figure S1A (cells expressing HA-hNTCP, with methyl-beta-cyclodextrin) (protein, UniProt P27105 1-288)
chain: MAEKRHTRDSEAQRLPDSFKDSPSKGLGPCGWILVAFSFLFTVITFPISIWMCIKIIKEYERAIIFRLGRILQGGAKGPGLFFILPCTDSFIKVDMRTISFDIPPQEILTKDSVTISVDGVVYYRVQNATLAVANITNADSATRLLAQTTLRNVLGTKNLSQILSDREEIAHNMQSTLDDATDAWGIKVERVEIKDVKLPVQLQRAMAAEAEASREARAKVIAAEGEMNASRALKEASMVITESPAALQLRYLQTLTTIAAEKNSTIVFPLPIDMLQGIIGAKHSHLG
For the molecule B3, in assay [5], the binding result is listed as “binds”.

B4: CLCC1 expressed in U2OS cells (V5-CLCC1) (protein, UniProt Q96S66 19-551)
chain: HDDDWIDPTDMLNYDAASGTMRKSQAKYGISGEKDVSPDLSCADEISECYHKLDSLTYKIDECEKKKREDYESQSNPVFRRYLNKILIEAGKLGLPDENKGDMHYDAEIILKRETLLEIQKFLNGEDWKPGALDDALSDILINFKFHDFETWKWRFEDSFGVDPYNVLMVLLCLLCIVVLVATELWTYVRWYTQLRRVLIISFLFSLGWNWMYLYKLAFAQHQAEVAKMEPLNNVCAKKMDWTGSIWEWFRSSWTYKDDPCQKYYELLLVNPIWLVPPTKALAVTFTTFVTEPLKHIGKGTGEFIKALMKEIPALLHLPVLIIMALAILSFCYGAGKSVHVLRHIGGPESEPPQALRPRDRRRQEEIDYRPDGGAGDADFHYRGQMGPTEQGPYAKTYEGRREILRERDVDLRFQTGNKSPEVLRAFDVPDAEAREHPTVVPSHKSPVLDTKPKETGGILGEGTPKESSTESSQSAKPVSGQDTSGNTEGSPAAEKAQLKSEAAGSPDQGSTYSPARGVAGPRGQDPVSSPCG
Consider B4, for which the binding entry in assay [5] is listed as “binds”.
